The list does not hold the whole screen: it gathers tests that were run many times, whatever their T/C, doses with no T/C, and many T/C values between a quarter and a half above the control. Further doses and runs are listed elsewhere. T/C gives the treated animals as a percentage of the vehicle group. Schedule codes are those of the source, read here as Q, the interval in days (D) or hours (H), X, the number of doses. Some T/C values carry the count of animals alive at the toxicity check (mostly the fifth day); without a count, all were alive then. Some entries give survivors of the animals treated and no T/C: the source files T/C as zero there, which appears to mark a toxic dose or a test without result, not a measured value. Survivors were counted at the toxicity check, usually on the fifth day, unless a day is given; later deaths do not show. Some entries hold several experiments; their values stand side by side, smallest first.
Tested on: C3AKF1 mice, osteogenic sarcoma HE10734 s.c., tumor weight T/C
Experiment: NCI In Vivo Anticancer Drug Screen. Data for tumor model Osteogenic Sarcoma HE 10734 (subcutaneous) in C3AKF1 (CHKRF1) mice
Conditions: T/C endpoint: mean tumor weight, schedule: Q01DX010 (ip), higher T/C = larger tumour; for T/C: evaluated on day 20
Description: The antitumor activity of compounds was measured in mice bearing transplantable tumors. Survival or tumor size were measured and the results are expressed as the measurement made in the treated group (T) divided by the measurement made in the vehicle treated control group (C). The tumor model used in this assay is Osteogenic Sarcoma HE 10734 (subcutaneous) in C3AKF1 (CHKRF1) mice

[1] = dose: 50.0 mg/kg/injection, vehicle: carboxymethylcellulose (CMC)
[2] = dose: 500.0 mg/kg/injection, vehicle: carboxymethylcellulose (CMC)
[3] = dose: 4.5 mg/kg/injection, vehicle: saline
[4] = dose: 30.0 mg/kg/injection, vehicle: carboxymethylcellulose (CMC)
[5] = dose: 60.0 mg/kg/injection, vehicle: carboxymethylcellulose (CMC)
[6] = dose: 120.0 mg/kg/injection, vehicle: carboxymethylcellulose (CMC)
[7] = dose: 240.0 mg/kg/injection, vehicle: carboxymethylcellulose (CMC)
[8] = dose: 300.0 mg/kg/injection, vehicle: saline
[9] = dose: 450.0 mg/kg/injection, vehicle: saline
[10] = dose: 1000.0 mg/kg/injection, vehicle: saline
[11] = dose: 125.0 mg/kg/injection, vehicle: saline

COc1cc([C@@H]2c3cc4c(cc3[C@H](O)[C@H]3COC(=O)[C@@H]23)OCO4)cc(OC)c1OC
survivor count (dose: 15.0 mg/kg/injection, vehicle: saline): 2 of 7
survivor count (dose: 30.0 mg/kg/injection, vehicle: saline): 0 of 7
survivor count (dose: 60.0 mg/kg/injection, vehicle: saline): 0 of 7

CCCCCCCCCCCCCCCCC(C(=O)O)C(O)(CC(=O)O)C(=O)O (centres undefined)
survivor count [1]: 2 of 6
survivor count (dose: 75.0 mg/kg/injection, vehicle: carboxymethylcellulose (CMC)): 0 of 6

CCCCCCCCCCCCO[P+](=O)OCCCCCCCCCCCC
survivor count (dose: 333.0 mg/kg/injection, vehicle: carboxymethylcellulose (CMC)): 0 of 7
survivor count [2]: 2 of 7
survivor count (dose: 750.0 mg/kg/injection, vehicle: carboxymethylcellulose (CMC)): 0 of 7

NC(CCSCc1ccc(N(CCCl)CCCl)cc1)C(=O)O (centres undefined)
survivor count [3]: 2 of 6
survivor count (dose: 81.0 mg/kg/injection, vehicle: saline): 2 of 6
survivor count (dose: 120.0 mg/kg/injection, vehicle: saline): 2 of 6

S=C(N=Nc1ccccc1)NNc1ccccc1
survivor count (dose: 100.0 mg/kg/injection, vehicle: carboxymethylcellulose (CMC)): 3 of 6
survivor count (dose: 150.0 mg/kg/injection, vehicle: carboxymethylcellulose (CMC)): 0 of 6

Cn1cnc([N+](=O)[O-])c1Sc1nc(N)nc2c1ncn2C1OC(CO)C(O)C1O (centres undefined)
survivor count (dose: 15.0 mg/kg/injection, vehicle: carboxymethylcellulose (CMC)): 3 of 6
survivor count [4]: 3 of 6
survivor count [5]: 0 of 6

NC(N)=N/N=C/C=N/N=C(N)N
survivor count [5]: 1 of 6
survivor count [6]: 0 of 6
survivor count [7]: 0 of 6

c1ccc(CSc2ncnc3nc[nH]c23)nc1
survivor count [8]: 0 of 7
survivor count [9]: 0 of 7

O=C(O)Cc1ccc(C2CCCCC2)cc1
survivor count (dose: 225.0 mg/kg/injection, vehicle: carboxymethylcellulose (CMC)): 5 of 8
survivor count (dose: 335.0 mg/kg/injection, vehicle: carboxymethylcellulose (CMC)): 2 of 8
survivor count [2]: 0 of 8

CC(C)Sc1nc(N)nc2nc[nH]c12
survivor count (dose: 200.0 mg/kg/injection, vehicle: saline): 0 of 7
survivor count [8]: 0 of 7
survivor count [9]: 0 of 7

CCOC(=O)Sc1ncnc2nc[nH]c12
survivor count (dose: 168.0 mg/kg/injection, vehicle: carboxymethylcellulose (CMC)): 0 of 6
survivor count (dose: 252.0 mg/kg/injection, vehicle: carboxymethylcellulose (CMC)): 0 of 6
survivor count (dose: 378.0 mg/kg/injection, vehicle: carboxymethylcellulose (CMC)): 0 of 6

CCC1=C(c2cc(Cl)c3ccccc3c2OCC(=O)O)OC(CC)(C(=O)c2cc(Cl)c3ccccc3c2OCC(=O)O)CC1 (centres undefined)
survivor count (dose: 8.0 mg/kg/injection, vehicle: carboxymethylcellulose (CMC)): 0 of 7
survivor count (dose: 13.0 mg/kg/injection, vehicle: carboxymethylcellulose (CMC)): 0 of 7
survivor count (dose: 20.0 mg/kg/injection, vehicle: carboxymethylcellulose (CMC)): 0 of 7
survivor count [4]: 0 of 6 and 0 of 7
survivor count [5]: 0 of 6
survivor count [6]: 0 of 6
survivor count [7]: 0 of 6

CN(C)c1ccc(/C=C\c2ccnc3ccccc23)cc1
T/C (dose: 2.5 mg/kg/injection, vehicle: carboxymethylcellulose (CMC)): 146 % of control

O=C1C=Cc2ccc(O)cc2C1=O
survivor count (dose: 2.0 mg/kg/injection, vehicle: saline): 4 of 7
survivor count (dose: 3.0 mg/kg/injection, vehicle: saline): 0 of 7
survivor count [3]: 0 of 7
survivor count (dose: 6.7 mg/kg/injection, vehicle: saline): 0 of 7

CC1(C)N=C(N)N=C(N)N1c1cccc(Br)c1
survivor count (dose: 16.0 mg/kg/injection, vehicle: carboxymethylcellulose (CMC)): 3 of 6
survivor count (dose: 25.0 mg/kg/injection, vehicle: carboxymethylcellulose (CMC)): 2 of 6
survivor count (dose: 37.0 mg/kg/injection, vehicle: carboxymethylcellulose (CMC)): 0 of 6

Cc1ccc(N2CCN(CCCN3CCN(c4ccc(Cl)cc4)CC3)CC2)cc1
survivor count [1]: 2 of 6

O=C(O)C1(NO)CCCC1
survivor count (dose: 225.0 mg/kg/injection, vehicle: saline): 2 of 6
survivor count [9]: 0 of 6

O=c1c[n+](-c2ccccc2)[nH]o1
survivor count (dose: 180.0 mg/kg/injection, vehicle: carboxymethylcellulose (CMC)): 3 of 7
survivor count (dose: 360.0 mg/kg/injection, vehicle: carboxymethylcellulose (CMC)): 0 of 7
survivor count (dose: 720.0 mg/kg/injection, vehicle: carboxymethylcellulose (CMC)): 0 of 7

C/C=C1\CN(C)[C@H]2Cc3c([nH]c4ccccc34)[C@@H](c3cc4[nH]c5c(c4cc3OC)CCN3C[C@H]4C[C@H](CC)[C@H]3[C@@]5(C(=O)OC)C4)C[C@H]1C2C(=O)OC (some centres undefined)
T/C (dose: 20.0 mg/kg/injection, vehicle: water): 126 % of control
T/C (dose: 30.0 mg/kg/injection, vehicle: water): 147 % of control

O=C(NO)c1ccncc1
survivor count [10]: 1 of 7

COc1ccc(Nc2ccnc3cc(Cl)ccc23)cc1CN(CCCl)CCCl
survivor count (dose: 6.0 mg/kg/injection, vehicle: saline): 0 of 6

O=c1[nH]c2cc(Cl)c(Cl)cc2o1
survivor count (dose: 125.0 mg/kg/injection, vehicle: carboxymethylcellulose (CMC)): 3 of 6

CC(CCc1cccc2ccccc12)(C(=O)O)C(=O)O
T/C (dose: 80.0 mg/kg/injection, vehicle: saline): 147 % of control [5 of 7 alive]
T/C [11]: 137 % of control
survivor count [11]: 3 of 6
survivor count (dose: 250.0 mg/kg/injection, vehicle: saline): 3 of 6
survivor count (dose: 500.0 mg/kg/injection, vehicle: saline): 2 of 6
survivor count [10]: 0 of 6

CCCn1cnc2c(SCc3ccccc3Cl)nc(N)nc21
survivor count (dose: 800.0 mg/kg/injection, vehicle: carboxymethylcellulose (CMC)): 1 of 6

C=CC(=O)NCNC(=O)C=C
survivor count (dose: 150.0 mg/kg/injection, vehicle: saline): 3 of 8
survivor count [8]: 0 of 8

c1cc2n(n1)CCN2
survivor count (dose: 240.0 mg/kg/injection, vehicle: saline): 0 of 6

Nc1ncnc2c1ncn2C1CCCO1 (centres undefined)
survivor count [8]: 0 of 6
survivor count (dose: 600.0 mg/kg/injection, vehicle: saline): 0 of 6

S=c1c2[nH]cnc2ncn1CCSC1=NC=NC2=NC=NC21 (centres undefined)
T/C (dose: 100.0 mg/kg/injection, vehicle: saline): 126 % of control

— PubChem BioAssay AID310 (DTP/NCI, 2004)
